No constants are given. Whether binding was seen depends on the method and setting. In cells and extracts the contact can be indirect. Some entries that bind do so weakly or less than the wild type.
Assays:
[1] = target: uPAR, in the breast cancer cell line MDA-MB-231 (human (endogenous in MDA-MB-231)) (UniProt Q03405); experiment: co-IP; breast cancer cell line MDA-MB-231; not shown in a figure; additional specificity control
uPAR-HA (human) = uPAR-HA (human) (UniProt Q03405); experiment: co-IP; HEK293T cells co-transfected with uPAR-HA and HSP70-flag and/or MRJ-flag (also with psiMRJ, psiHSP70 or HSP70-prk5); IP with anti-HA antibody, blot with anti-flag; lysis buffer 50 mM Tris-HCl pH 7.4, 250 mM NaCl, 0.5% Triton-X 100

Sequences of proteins named here, by UniProt entry; tags and fusion partners are left off. A change or cut given only in a name is not applied to a line headed by its entry. A line that says so, or that is headed by a name, gives the form on record, which may keep a tag or linker. Residues count along the entry.
UniProt Q03405, residues 23-305: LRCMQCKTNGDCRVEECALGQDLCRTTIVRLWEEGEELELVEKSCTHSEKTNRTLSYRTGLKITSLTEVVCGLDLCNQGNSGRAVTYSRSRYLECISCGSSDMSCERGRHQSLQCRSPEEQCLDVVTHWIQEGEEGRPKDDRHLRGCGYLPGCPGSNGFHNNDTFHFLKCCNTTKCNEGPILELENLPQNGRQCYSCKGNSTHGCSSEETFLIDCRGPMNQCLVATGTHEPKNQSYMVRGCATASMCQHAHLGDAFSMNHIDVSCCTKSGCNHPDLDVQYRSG
MRJ-flag (O75190-2, form named): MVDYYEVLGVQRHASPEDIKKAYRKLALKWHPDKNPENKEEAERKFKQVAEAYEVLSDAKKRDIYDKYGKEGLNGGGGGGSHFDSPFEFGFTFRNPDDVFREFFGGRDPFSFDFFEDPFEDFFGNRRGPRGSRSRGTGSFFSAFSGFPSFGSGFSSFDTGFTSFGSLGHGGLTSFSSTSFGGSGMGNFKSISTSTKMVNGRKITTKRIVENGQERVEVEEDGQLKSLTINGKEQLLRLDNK

Row | binding [1] | binding (uPAR-HA (human)) | Substance
1 | binds | – | MRJ (DNAJB6), in the breast cancer cell line MDA-MB-231 (from UniProt O75190-2 1-241)
2 | – | binds | MRJ-flag (from UniProt O75190-2 1-241)

Reference: article PMC4159539
